Measured values taken from publication PMC5291090.
Construct, isoform or probe ends are uncertain for at least one entry. Where cells or extracts were used, other partners may take part. For part of these data: No signal at the amounts used counts as a negative. For part of these data: At least one verdict was read from the data and is not stated in words by the source. Where a protein sequence is shown, tags need not be part of it.

Tests used:
STAT (Aedes aegypti) [1] = target: T1, STAT (Aedes aegypti) (UniProt B8LFE5); experiment: competition with a labelled probe; conditions: 1 mM Tris pH 7.5, 50 mM KCl, 1 mM DTT, 0.05% NP-40, 2.5% glycerol, 50 ng/uL poly(dI:dC), 20 min at room temperature, 5% polyacrylamide gel, protein in an extract, protein details: V5-His (pAc5.1-V5-His A)
T1 sequence (looked up, limits assumed): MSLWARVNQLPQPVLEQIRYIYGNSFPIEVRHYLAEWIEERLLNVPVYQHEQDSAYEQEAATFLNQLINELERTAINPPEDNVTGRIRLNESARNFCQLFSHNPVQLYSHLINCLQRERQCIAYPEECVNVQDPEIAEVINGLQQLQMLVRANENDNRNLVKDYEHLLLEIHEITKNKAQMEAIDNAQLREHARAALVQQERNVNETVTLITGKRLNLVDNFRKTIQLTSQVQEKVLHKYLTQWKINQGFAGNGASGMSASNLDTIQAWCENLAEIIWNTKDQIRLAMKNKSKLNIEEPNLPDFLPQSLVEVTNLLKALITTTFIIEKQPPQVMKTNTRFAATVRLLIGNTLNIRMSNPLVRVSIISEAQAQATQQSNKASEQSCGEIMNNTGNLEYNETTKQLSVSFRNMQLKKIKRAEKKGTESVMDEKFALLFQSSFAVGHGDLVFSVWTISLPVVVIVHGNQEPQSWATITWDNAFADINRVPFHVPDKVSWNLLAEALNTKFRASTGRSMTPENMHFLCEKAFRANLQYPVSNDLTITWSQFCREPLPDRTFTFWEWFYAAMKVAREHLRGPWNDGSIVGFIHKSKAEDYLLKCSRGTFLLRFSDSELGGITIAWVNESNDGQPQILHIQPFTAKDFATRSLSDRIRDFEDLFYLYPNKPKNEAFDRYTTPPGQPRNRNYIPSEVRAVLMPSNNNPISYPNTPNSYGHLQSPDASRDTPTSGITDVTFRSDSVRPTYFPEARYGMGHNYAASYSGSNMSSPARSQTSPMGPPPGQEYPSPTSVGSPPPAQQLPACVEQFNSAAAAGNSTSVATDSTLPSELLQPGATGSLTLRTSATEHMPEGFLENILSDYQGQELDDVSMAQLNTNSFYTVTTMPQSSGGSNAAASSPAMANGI

STAT (Aedes aegypti) [2] = target: T1, STAT (Aedes aegypti); experiment: EMSA supershift; conditions: anti-V5 antibody; 1 mM Tris pH 7.5, 50 mM KCl, 1 mM DTT, 0.05% NP-40, 2.5% glycerol, 50 ng/uL poly(dI:dC), 20 min at room temperature, 5% polyacrylamide gel; protein in an extract; protein details: V5-His (pAc5.1-V5-His A)

Sequence	binding result (STAT (Aedes aegypti) [1]; unlabeled mutant competitor)	binding result (STAT (Aedes aegypti) [2])	binding result (STAT (Aedes aegypti) [1]; unlabeled specific competitor)
TTGACATAACCATAATACATCCAAGCTGGTAAACGCAGACGACGATCAAC (double strand) [m1-mutant competitor]	no binding	–	–
TTGACATAACCATAATACATTTCCATGAATAAACGCAGACGACGATCAAC (double strand) [m1-probe (Gambicin promoter STAT site -577 to -568)]	–	binds	binds
